{
  "source": "patent US20070104803A1",
  "about": "“Chinese herbal composition for treating diseases” (Kaohsiung Medical University, priority 2005, published 2007)",
  "format_in_all_cases": "in vivo, rat",
  "key": {"Wistar rats [1]": {"test_system": "Wistar rats", "test": "Attenuation of LPS-induced arterial hypotension (post-treatment)", "conditions": "HBCM 75 mg/kg, baicalin 1.5 mg/kg, DEXA 0.5 mg/kg i.v. 10 min after LPS 10 mg/kg i.v.; FIG. 3", "protocol": "(§1) The animal experiment is approved by the Animal Care and Use Committee at the Kaohsiung Medical University. The male Wistar rats, weighing 250-350 g, are provided by the National Laboratory Animal Breeding and Research Center (Taipei, Taiwan). The rats are housed under conditions of constant temperature and controlled illumination (light regime of 12 h light and 12 h darkness). The rats are allowed food and water ad libitum. They are anesthetized with an intraperitoneal (i.p.) injection of pentobarbital sodium (50 mg/kg). Following tracheal cannulation, systemic arterial blood pressure and heart rate are recorded from the femoral artery with a pressure transducer (Spectramed, Model P10EZ, USA). Body temperature is maintained at 37° C. by an electric heating pad. A femoral vein is cannulated for the administration of LPS (E. coli serotype 026:B6), HBCM, baicalin, or dexamethasone (DEXA), respectively. The rats are injected intravenously with either saline (0.1 ml/kg) or LPS (10 mg/kg) for control and experimental purposes, respectively. All the animals are assigned to one of the following groups: saline only, LPS/saline, LPS/HBCM (75 mg/kg), LPS/baicalin (1.5 mg/kg), and LPS/DEXA (0.5 mg/kg) groups. LPS is injected at a dose of 10 mg/kg, after 10 min, HBCM, baicalin and DEXA are given, respectively. […]"}, "Wistar rats [2]": {"test_system": "Wistar rats", "test": "LPS-induced lung edema (wet/dry weight ratio)", "conditions": "5 hours after LPS; HBCM, baicalin, DEXA given 10 min after LPS; FIG. 7", "protocol": "as §1, with “respectively.” for “respectively. The rats are injected intravenously with either saline (0.1 ml/kg) or LPS (10 mg/kg) for control and experimental purposes, respectively. All the animals are assigned to one of the following groups: saline only, LPS/saline, LPS/HBCM (75 mg/kg), LPS/baicalin (1.5 mg/kg), and LPS/DEXA (0.5 mg/kg) groups. LPS is injected at a dose of 10 mg/kg, after 10 min, HBCM, baicalin and DEXA are given, respectively.”\nThe water content of the lungs is determined by calculating the wet/dry weight ratio of lung tissues at 5 hours after LPS administration. […] The dry weight is determined after the lung is dried at 80° C. for 72 hours, and the edema index (wet/dry weight ratio) is calculated by dividing the wet weight by the dry weight. The edema index indicates the water content of the lung, which is determined by calculating the wet/dry weight ratio of lung tissues at 5 hours after LPS administration."}, "iNOS": {"test_system": "iNOS", "test": "LPS-induced iNOS in lung tissues (western blot)", "conditions": "5 h after LPS 10 mg/kg; HBCM 75, baicalin 1.5, DEXA 0.5 mg/kg post-treatment; FIG. 8", "protocol": "as §1, with “respectively.” for “respectively. All the animals are assigned to one of the following groups: saline only, LPS/saline, LPS/HBCM (75 mg/kg), LPS/baicalin (1.5 mg/kg), and LPS/DEXA (0.5 mg/kg) groups. LPS is injected at a dose of 10 mg/kg, after 10 min, HBCM, baicalin and DEXA are given, respectively.”\n(§2) The HBCM, baicalin and DEXA are post-treated 10 minutes after the administration of LPS. […] The expression of each protein is detected by enhanced chemiluminescence using Hyperfilm and ECL reagent (Amersham, UK)."}, "[3]": {"test_system": "phosphorylated p38 MAP kinase", "test": "LPS-induced phosphorylated p38 MAP kinase in lung tissues (western blot)", "conditions": "5 h after LPS 10 mg/kg; HBCM 75, baicalin 1.5, DEXA 0.5 mg/kg post-treatment; FIG. 8", "protocol": "as §1, with “respectively.” for “respectively. All the animals are assigned to one of the following groups: saline only, LPS/saline, LPS/HBCM (75 mg/kg), LPS/baicalin (1.5 mg/kg), and LPS/DEXA (0.5 mg/kg) groups. LPS is injected at a dose of 10 mg/kg, after 10 min, HBCM, baicalin and DEXA are given, respectively.”\nas §2"}, "TGF-β": {"test_system": "TGF-β", "test": "LPS-induced TGF-β in lung tissues (western blot)", "conditions": "5 h after LPS 10 mg/kg; HBCM 75, baicalin 1.5, DEXA 0.5 mg/kg post-treatment; FIG. 8", "protocol": "as §1, with “respectively.” for “respectively. All the animals are assigned to one of the following groups: saline only, LPS/saline, LPS/HBCM (75 mg/kg), LPS/baicalin (1.5 mg/kg), and LPS/DEXA (0.5 mg/kg) groups. LPS is injected at a dose of 10 mg/kg, after 10 min, HBCM, baicalin and DEXA are given, respectively.”\nas §2"}, "ICAM-1": {"test_system": "ICAM-1", "test": "LPS-induced ICAM-1 in lung tissues (western blot)", "conditions": "5 h after LPS 10 mg/kg; HBCM 75, baicalin 1.5, DEXA 0.5 mg/kg post-treatment; FIG. 8", "protocol": "as §1, with “respectively.” for “respectively. All the animals are assigned to one of the following groups: saline only, LPS/saline, LPS/HBCM (75 mg/kg), LPS/baicalin (1.5 mg/kg), and LPS/DEXA (0.5 mg/kg) groups. LPS is injected at a dose of 10 mg/kg, after 10 min, HBCM, baicalin and DEXA are given, respectively.”\nas §2"}, "TNF-α": {"test_system": "TNF-α", "test": "LPS-induced plasma TNF-α immunoreactivity (post-treatment, ELISA)", "conditions": "LPS 10 mg/kg i.v.; HBCM 75, baicalin 1.5, DEXA 0.5 mg/kg 10 min after LPS; FIG. 9", "protocol": "as §1"}, "IL-1β": {"test_system": "IL-1β", "test": "LPS-induced plasma IL-1β immunoreactivity (post-treatment, ELISA)", "conditions": "LPS 10 mg/kg i.v.; post-treatment 10 min after LPS; up to 5 hours; FIG. 9", "protocol": "as §1"}, "MCP-1": {"test_system": "MCP-1", "test": "LPS-induced plasma MCP-1 immunoreactivity (post-treatment, ELISA)", "conditions": "LPS 10 mg/kg i.v.; post-treatment 10 min after LPS; up to 5 hours; FIG. 9", "protocol": "as §1"}},
  "note": "At least one structure is not confirmed: it was looked up by name or label, or the drawing left a doubt.",
  "data": [
    {"compound": "C[C@@H]1C[C@H]2[C@@H]3CCC4=CC(=O)C=C[C@]4(C)[C@@]3(F)[C@@H](O)C[C@]2(C)[C@@]1(O)C(=O)CO", "note": "[DEXA, dexamethasone]", "values": [
      {"measurement": "LPS-induced prolonged arterial hypotension", "setting": "Wistar rats [1]", "result": "significantly attenuates"},
      {"measurement": "LPS-induced lung edema (wet/dry weight ratio)", "setting": "Wistar rats [2]", "result": "significantly attenuates"},
      {"measurement": "LPS-induced iNOS expression in lung tissues", "setting": "iNOS", "result": "significant inhibition"},
      {"measurement": "LPS-induced phosphorylated p38 MAP kinase expression in lung tissues", "setting": "[3]", "result": "significant inhibition"},
      {"measurement": "LPS-induced TGF-β expression in lung tissues", "setting": "TGF-β", "result": "significant inhibition"},
      {"measurement": "LPS-induced ICAM-1 expression in lung tissues", "setting": "ICAM-1", "result": "significant inhibition"},
      {"measurement": "elevation of plasma TNF-α vs LPS/saline group", "setting": "TNF-α", "result": "significantly lower"},
      {"measurement": "elevation of plasma IL-1β vs LPS/saline group", "setting": "IL-1β", "result": "lower"},
      {"measurement": "elevation of plasma MCP-1 vs LPS/saline group", "setting": "MCP-1", "result": "lower"}
    ]}
  ]
}
